Earlier results, collected in patent publication US7803402B2, “Pharmaceutical preparations” (priority 2002, dated 2010).
At least one structure is not confirmed: it was looked up by name or label, or the drawing left a doubt.

What was measured:
Enterobacteriaceae = details: some Enterobacteriaceae, compared with cefotaxime
[1] = system: Streptococcus pneumoniae, Streptococcus pyogenes, Streptococcus agalactiae; Hamophilus influenzae, Neisseria gonorrhoeae, Escherichia coli, Proteus mirabilis …

## C=CC1=C(C(=O)O)N2C(=O)[C@@H](NC(=O)/C(=N\OCC(=O)O)c3csc(N)n3)[C@H]2SC1 [Cefixime]
Enterobacteriaceae
  susceptibility to cefixime: less susceptible
[1]
  bactericidal effectiveness for listed pathogens: effective
